Data taken from US20220221455A1 (GlaxoSmithKline, published 2022).

Columns and labels:
Fibrinogen = assay: SPR (Biacore, CM-5 sensor chips)
Laminin = assay: SPR (Biacore, CM-5 sensor chips)

B1: PilA (protein)
chain: TKKAAVSELLQASAPYKADVELCVYSTNETTNCTGGKNGIAADITTAKGYVKSVTTSNGAITVKGDGTLANMEYILQATGNAATGVTWTTTCKGTDASLFPANFCGSVTQ
With B1 the binding (Fibrinogen) was “no binding” and the binding (Laminin) was “no binding”.

No constants are given. Whether binding was seen depends on the method and setting.
